Data published in PubChem BioAssay AID652054 (National Center for Advancing Translational Sciences (NCATS), 2013).
“And” between values parts separate entries of the source, which are not always exact repeats. Identical values can stand only once. Screen size: about 360,000 compounds; about 9,100 (2.5%) were called active. The inconclusive results got no clear call from the source; some entries with a clear call stand among them for comparison. Cut-off read from the data, not from the text of the source: active = max response below about -50%; inconclusive = no clear call, values can overlap the other calls; inactive = above that.

By UniProt entry, the sequences of proteins in these tests, tags left out.
UniProt P35462, whole entry, looked up: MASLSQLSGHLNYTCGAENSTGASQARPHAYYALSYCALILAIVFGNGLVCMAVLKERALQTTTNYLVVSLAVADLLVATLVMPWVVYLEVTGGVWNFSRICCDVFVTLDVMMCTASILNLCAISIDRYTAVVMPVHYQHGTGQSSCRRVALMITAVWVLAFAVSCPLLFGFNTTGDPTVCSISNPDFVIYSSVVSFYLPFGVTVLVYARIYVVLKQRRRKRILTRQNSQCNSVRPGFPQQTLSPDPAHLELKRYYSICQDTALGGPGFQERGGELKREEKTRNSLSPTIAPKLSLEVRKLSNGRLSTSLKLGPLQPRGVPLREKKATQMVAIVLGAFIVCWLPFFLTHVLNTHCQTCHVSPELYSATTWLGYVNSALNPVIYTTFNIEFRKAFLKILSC

What follows are compounds tested against D(3) dopamine receptor (Homo sapiens) (UniProt P35462) (assay: qHTS of D3 Dopamine Receptor Antagonist: qHTS). Conditions: D3R cells, DiscoveRx beta-arrestin luminescence, antagonist mode; hits give low values.
Description: D3 DARs represent a very important target for the treatment of several neuropsychiatric disorders. Indeed, one of the most promising therapeutic applications for the D3 DAR is in the area of addiction and related disorders. […] These findings have been observed with a number of addictive substances including cocaine, amphetamine, nicotine, and alcohol. […] Antagonism of the D3 DAR may also be therapeutic in the treatment of schizophrenia or psychosis. […] Since the D3 DAR is expressed in areas of the CNS associated with the control of mood and emotion, it has been hypothesized that selective antagonism of the D3 DAR may be effective in treating psychosis without inducing the motor side effects typically seen with D2 DAR antagonists.
This part of the project aims to discover novel antagonist.
NIH Chemical Genomics Center [NCGC]
NIH Molecular Libraries Probe Centers Network [MLPCN]
Assay Submitter (PI): David Sibley, NINDS
Freshly passaged cells are plated in 1536 well white, solid bottom plates at a density of 1500 cells/well in 3microl of complete media. After an overnight incubation at 37 degrees C in 5% CO2, cells are loaded with 23nl of test compound from the compound library (as well as dopamine controls) using a 1536 pintool and incubated at 37 degrees C for 90 minutes. Two microliters of DiscoveRx reagent is then added to all cells, and they are incubated for an additional 30 - 60 minutes at room temperature. Following incubation, luminescence is measured on a ViewLux CCD-based luminometer reader using a 20 sec exposure time.
% is set by controls: 0 for no effect and ±100 for the full control effect.

SMILES | max response, negative = inhibition
Cn1c(CSc2nc3ccccc3s2)n[nH]c1=S | active: -64.7%
COC(=O)C1=C(C(=O)OC)[C@@H]2N(C)c3ccccc3[C@@]23C[C@@H](CO)N(C(=O)c2cccs2)C3=N1 | active: -50.6%
CCOC(=O)C1=C(C)N(CCCCCC(=O)O)C(=O)NC1c1ccccc1OS(=O)(=O)c1ccc(C)cc1 (stereo unspecified) | inconclusive: -30.2%
COc1ccc(OC)c(N(CC(=O)NCCSCc2ccc(C)cc2)S(C)(=O)=O)c1 | inconclusive: -31.3%
CCc1ccc2[nH]c(=O)c(CN(CCN(C)C)C(=S)NCc3ccco3)cc2c1 | inactive: -6.76%
Cc1cc(F)ccc1N1CCC(N2CCN(C(C)C)C(CCO)C2)CC1 (stereo unspecified) | active: -53.2%
CCN(CC)S(=O)(=O)c1ccc(NC(=O)Nc2cccc(C(F)(F)F)c2)cc1 | inconclusive: -44.1%
COCCN(C(=O)COC(=O)c1oc2ccc(OC)cc2c1C)c1c(N)n(Cc2ccccc2)c(=O)[nH]c1=O | inactive: 10.6%
CCCc1c(C(=O)N/N=C/C2CC=CCC2)nnn1-c1nonc1N (stereo unspecified) | inconclusive: -40.5%
CCOC(=O)c1cc2cc(OC)ccc2n1C1CCN(CCc2ccccc2)CC1 | active: -109%
O=C(C[n+]1ccccc1)N/N=C/c1cc(Br)ccc1O | active: -88.8%
CC(C)Oc1ccc(C(=O)Nc2cc(S(=O)(=O)N3CCOCC3)ccc2N2CCOCC2)cc1 | inactive: -3.46%
COc1ccc(-c2[nH]ncc2CN2CCC(C(=O)c3ccc(F)cc3)CC2)cc1 | active: -90.2%
O=C(NC1CCN(Cc2ccccc2)CC1)c1cccc(S(=O)(=O)Nc2ccc(Br)cc2)c1 | active: -56.9%
Cc1cc(/C=C2\SC(=S)N(C)C2=O)c(C)n1-c1ccccc1O | inactive: 2.58%
CCOc1ccc(CCN2C(=O)C(=O)N([C@@H](CC(C)C)CN3CCC[C@H]3CN3C(=O)C(=O)NC[C@@H]3Cc3ccccc3)C[C@@H]2CC(C)C)cc1 | inactive: 2.39%
CSc1ccc(/C=C(\C#N)C(=O)NC2CCCCC2C)cc1 (stereo unspecified) | inactive: -5.25%
O=[N+]([O-])c1ccc(N/N=C/c2ccc[nH]2)cc1 | inconclusive: -30.3%
CCCCc1nnc(NC(=O)CCS(=O)(=O)c2ccc(Cl)cc2)s1 | inactive: -1.18%
CC(C)C(NC(=O)OCc1ccccc1)C(=O)OCC(=O)N1C(C)CCCC1C (stereo unspecified) | inconclusive: -39.5%
COc1ccc(S(=O)(=O)N(C)c2ccc(C(=O)NCCC(C)C)cc2)cc1 | inconclusive: -31.8%
O=C(Cc1ccc(S(=O)(=O)N2CCCCC2)cc1)NCc1ccc(Cl)cc1 | inactive: -11.6%

SMILES | max response, negative = inhibition
Cc1cc(Br)ccc1OCCCCN1CCC(C)CC1 | active: -75.7%
Nc1ncnc(Sc2ncccn2)c1[N+](=O)[O-] | active: -84.3%
Cc1ccc(-n2c(C)cc(C(=O)CSc3nncs3)c2C)cc1 | inactive: 3.74%
Cc1c(Cl)c([N+](=O)[O-])nn1CCCC(=O)N1CCN(c2ccccc2)CC1 | inconclusive: -45.2%
O=C(Cn1nnc(-c2ccccc2-n2cnnn2)n1)NCc1ccccc1 | active: -109%
CC(C)[C@H]1C=C(C(=O)O)O[C@@H](OCc2ccc(CO)cc2)C1 | inconclusive: -45.3%
COC(=O)C1=C(C)NC(C)=C(C(=O)OCC(C)C)C1c1ccccc1[N+](=O)[O-] (stereo unspecified) | inactive: -8%
CCN(CC)CCN(C(=O)C1=COCCO1)c1nc2ccc(C)cc2s1 | inconclusive: -32.6%
COc1cc(CN2CCN(Cc3ccc(C)cc3)C(CCO)C2)cc(OC)c1O (stereo unspecified) | inconclusive: -32.9%
COc1cccc(C2(O)C(=O)Nc3ccccc32)c1 (stereo unspecified) | inconclusive: -30%
Cc1ccc(C(=O)c2ccc([N+](=O)[O-])cc2)cc1 | inconclusive: -35.1%
COc1cccc(C(=O)OCCN2CCCCC2)c1 | inconclusive: -34.7%
CCN(CC)S(=O)(=O)c1cccc(-c2nnc(SCc3nnc(-c4ccccc4)o3)n2C)c1 | active: -50.5%
O=C1C(Br)=C(c2ccccc2)C(c2ccccc2)=C1c1ccccc1 | inconclusive: -45.9%
COc1cc(C(=O)Nc2nc3ccc(C)cc3s2)ccc1OCc1c(C)noc1C | inactive: 3.32%
O=C(NC(Nc1nc2ccc([N+](=O)[O-])cc2s1)(C(F)(F)F)C(F)(F)F)c1ccccc1Cl | inactive: -10.5%
CCc1ccc2[nH]c(O)c(N=Nc3nc(-c4ccccc4)cs3)c2c1 | inconclusive: -34.8%
Cc1ccc(Cl)cc1N1CCN(C(=O)c2ccc(CN3CCOCC3)cc2)CC1 | inactive: -20.5%
Cc1cc(C)c2c(-n3cccc3)c(C(=O)NNS(=O)(=O)c3ccc(Br)cc3)sc2n1 | inconclusive: -46.7%
Cc1ccc(Cc2cnc(N3C(=N)SC(C)C3=O)s2)cc1 (stereo unspecified) | inconclusive: -48.6%
O=C1C(NS(=O)(=O)c2cccs2)=C(N2CCN(c3cccc(Cl)c3)CC2)C(=O)c2ccccc21 | inconclusive: -37.3%
COc1ccc2[nH]cc(CCNC(=O)Cc3ccc(Br)cc3)c2c1 | inactive: 7.41%

SMILES | max response, negative = inhibition
Cc1ccc(N2C(=O)CSC2c2cccs2)cc1 (stereo unspecified) | active: -56.8%
CCCCCNC(=O)C(C#N)c1nc2ccccc2nc1N1CCCC1 (stereo unspecified) | inconclusive: -30.3%
Brc1cccc(-c2nnc3sc(CN4CCCCC4)cn23)c1 | inconclusive: -49.2%
O=C1NC[C@H](CCCCN2C[C@H](Cc3ccc(O)cc3)N(Cc3ccccc3)C(=O)C2=O)N(Cc2ccccc2)C1=O | inconclusive: -49.5%
COc1cccc(CNc2nc3cc(-c4ccccc4C)sc3c(=O)n2C)c1OC | inactive: 27.2%
CCC(=O)N1N=C(c2cccs2)CC1c1ccco1 (stereo unspecified) | inactive: -9.66%
O=C(Nc1cccc(Cl)c1)c1ccc(F)c(S(=O)(=O)NCc2ccc3c(c2)OCO3)c1 | inconclusive: -34.7%
O=C(NCCc1cccs1)c1ccc(Cl)cc1 | inactive: -23.5%
COc1ccc(C(=O)c2sc(Nc3ccccc3)c(C(=O)Nc3ccc(OC)c(OC)c3)c2N)cc1 | inconclusive: -34.6%
Nc1ccc2oc3ncccc3c(=O)c2c1 | active: -97.9%
CCN(C(=O)C(C)OC(=O)c1nn(-c2ccccc2C(F)(F)F)cc1O)c1ccccc1 (stereo unspecified) | inconclusive: -32%
CCN1CCCC1CNC(=O)C1CCN(Cc2nc(-c3cccc(Br)c3)oc2C)CC1 (stereo unspecified) | inconclusive: -37.3%
Cc1ccc(C(O)c2ncc(-c3ccc4ccccc4c3)[nH]2)cc1F (stereo unspecified) | inconclusive: -33.7%
C/C(Cl)=C\Cn1c(N2CCCCCC2)nc2c1c(=O)n(C)c(=O)n2C | inactive: 16.8%
CN(CCCNC(=O)CCC(=O)N1CCOc2ccc(Cl)cc21)Cc1ccccc1 | inconclusive: -45%
Cc1ccc(-c2cc(C(=O)N3CCCCC3)c3ccccc3n2)cc1C | inactive: 18.9%
Fc1ccccc1N1CCN(C2CCN(Cc3c[nH]c4ccccc34)CC2)CC1 | active: -60.2%
CCC1=NN(C(=O)COc2ccccc2)C(O)(c2ccc(Br)cc2)C1 (stereo unspecified) | inconclusive: -30.6%
COc1cc2c(C#N)c(N3CCc4ccccc4C3)nc(N)c2c(N)n1 | inactive: -4.2%
O=[N+]([O-])c1ccc(O)c(C2CCCCC2)c1 | inconclusive: -34.9%
CCOc1ccccc1NC(=O)CCN(c1ccc(C)cc1)S(=O)(=O)c1ccccc1 | inconclusive: -31.8%
O=C(CSc1nnc(-c2ccccn2)n1Cc1ccco1)c1ccc(Cl)cc1 | inconclusive: -31.6%

SMILES | max response, negative = inhibition
Cc1nc(NCc2ccco2)c2oc3ccccc3c2n1 | inactive: 48.1%
COc1cc(/C=C2\SC(=Nc3ccccc3)NC2=O)cc(Cl)c1O | inconclusive: -34.3%
O=C(Cn1[nH]c(=O)c2ccccc2c1=O)NC1CCN(Cc2ccccc2)CC1 | active: -71.8%
COc1cc(C(C)=O)ccc1Oc1ncnc2c1cnn2-c1ccc(C)c(C)c1 | inactive: 58.7%
O=C(CSc1nnc(C2CC2)n1Cc1ccccc1)NCc1ccccc1 | inconclusive: -30.9%
CC(Cc1ccccc1)C(=O)NCc1ccncc1 (stereo unspecified) | inconclusive: -36.7%
O=C(Nc1cccc2nsnc12)c1ccc(-c2cccc(Cl)c2)o1 | inactive: 6.68%
CCN(CC)CCN1C(=O)c2oc3ccc(F)cc3c(=O)c2C1c1ccncc1 (stereo unspecified) | inactive: -4.85%
Cc1ccc(C)c(NC(=O)CN(C)C(=O)c2ccccc2Cc2ccccc2)c1 | inconclusive: -33.4%
CN(C(=O)c1cccc(NC(=O)Cc2ccc(NC(=O)C3CCCN(C(=O)C4CC4)C3)cc2)c1)C1CCCCC1 (stereo unspecified) | inactive: 21.9%
Cc1ccccc1-c1cc2nc(NCc3ccccc3F)n(C)c(=O)c2s1 | inactive: -15.3%
O=C(CS(=O)(=O)Cc1ccccc1)N1CCN(c2cccc(C(F)(F)F)c2)CC1 | inconclusive: -48.7%
CC(CN1CCCCC1)OC(=O)C(C)(c1ccccc1)c1ccccc1 (stereo unspecified) | active: -53.3%
O=C(Nc1ccon1)c1ccc(OC2CCCC2)cc1 | inconclusive: -45.3%
COCCn1cnnc1SCC(=O)c1ccc(S(=O)(=O)N2CCCC2)cc1 | inconclusive: -37.7%
Cc1cc2c(cc1C)-n1nnnc1C(N1CCN(CC(=O)NC(C)C)CC1)C(=O)N2 (stereo unspecified) | inactive: 11.5%
CCc1ccc2[nH]c(=O)c(C(c3nnnn3CC3CCCO3)N3CCCc4ccccc43)cc2c1 (stereo unspecified) | inactive: 7.74%
Cc1ccc2c(cnn2C(=O)CCC(=O)NCc2cccc(Cl)c2)c1 | inactive: -21.9%
C=C1C(=O)OC2C=C(CO)CCC=C(CO)CC(OC(=O)C(C)C)C12 (stereo unspecified) | inconclusive: -47.8%
